In PubChem BioAssay AID2685 (National Center for Advancing Translational Sciences (NCATS), 2010):
Some of the results follow. Further columns of the screen follow, without active or inactive calls. Compounds called inactive in the main read-out are mostly missing here. The note in brackets gives the kind of curve behind each potency; many fits are weak.

Test: qHTS Assay for Lipid Storage Modulators in Drosophila S3 Cells;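 on cell number change: cells counted by Cell Tracker Red CMTPX staining in the red channel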
Conditions: BODIPY lipid droplet fluorescence, 18-24 h; for cell number change: measured here: cell count max response, cells fed with added oleic acid
Summary of the method: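 Laser-scanning cytometry quantifies lipid droplet accumulation (500–530 nm total intensity; droplet/cell object ratio) in oleic acid-fed (400 uM added) Drosophila S3 cells treated with a concentration series. 20 uM Triacsin C defined 100% inhibition.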

[1] = measured here: lipid fluorescence (Fed channel) AC50, cells fed with added oleic acid
[2] = measured here: cell number channel AC50, cells fed with added oleic acid

| Compound | AC50 [1] | cell number change | AC50 [2] |
| --- | --- | --- | --- |
| CCC(=O)Nc1nnc(S(=O)(=O)N(C)c2ccccc2)s1 | 6.51 µM [rising, single point] | – | – |
| CC(NC(=O)COC(=O)CCc1nc2ccccc2c(=O)[nH]1)c1ccccc1 (centres undefined) | 29.1 µM [rising, single point] | 43.8% | 29.1 µM [rising, single point] |
| CC(=O)Nc1ccc(-c2csc(NC(=O)CCCc3cccs3)n2)cc1 | – | -7.69% | – |
| COc1ccc(NC(=O)C(CCS(C)(=O)=O)N2C(=O)c3ccccc3C2=O)cc1 (centres undefined) | – | -80.7% | 16.4 µM [falling, partial curve] |
| CCC1CCCCN1CCCNC(=O)C1CC(=O)N(CCc2ccccc2)C1 (centres undefined) | 0.82 µM [rising, full curve, poor fit] | -11% | – |
| CC1CC(=O)N(CC(=O)Nc2ccccc2F)c2ccccc2S1(=O)=O (centres undefined) | 23.1 µM [rising, single point] | 83.3% | 18.4 µM [rising, single point] |
| CS(=O)(=O)c1ccc(NC(=O)C2CC(=O)N(c3ccc4c(c3)OCCO4)C2)cc1 (centres undefined) | 0.326 µM [falling, full curve] | 7.26% | 0.411 µM [falling, full curve, poor fit] |
| COc1ccc(NC(=O)Cn2nnc(C(=O)NCCc3ccccc3)c2N)cc1 | 0.00517 µM [falling, full curve, poor fit] | – | – |
| Cc1ccc(C)n1CCN1CCN(C(=O)CSc2nc3ccccc3nc2N2CCOCC2)CC1 | 0.164 µM [rising, full curve, poor fit] | 6.35% | – |
| O=C(CN1C(=O)NC2(CCCC2)C1=O)Nc1ccc(F)c([N+](=O)[O-])c1 | 23.1 µM [falling, single point] | 6.96% | – |
| COCCCNC(=S)Nc1cccc(SC)c1 | – | 21% | 0.13 µM [rising, full curve, poor fit] |
| CCOc1cc(/C=C2\C(=O)N(c3cccc(C(F)(F)F)c3)C(=O)c3ccccc32)ccc1O | 1.64 µM [falling, partial curve] | -0.0847% | 1.84 µM [falling, partial curve] |
| Cc1ccc(C)c(NS(=O)(=O)c2csc(C(N)=O)c2)c1 | – | -34.7% | 25.9 µM [falling, single point] |
| O=C(CSc1nc(C2CC2)n(-c2ccccc2)n1)NCc1ccco1 | – | 1.51% | – |
| O=C1CCCN1CCCNC(=S)Nc1cccc2ccccc12 | – | 5.5% | – |
| O=C(Nc1ccc(S(=O)(=O)N2CCOCC2)cc1)c1cc(S(=O)(=O)N2CCOCC2)ccc1Cl | 6.51 µM [rising, partial curve, poor fit] | -4.52% | – |
| Cc1cc(C)n2nc(C(=O)NNC(=O)c3ccc(Cl)cc3)nc2n1 | 0.92 µM [falling, full curve] | – | – |
| O=C(N/C(=C\c1ccc([N+](=O)[O-])cc1)C(=O)N1CCCCC1)c1ccc(Br)o1 | 25.9 µM [falling, single point] | -11.4% | – |
| CC(=O)N[C@@H](C)c1nc2ccccc2n1CCNC(=O)[C@H]1CCCN1c1nc(CN2CCCCC2)cs1 | 14.6 µM [falling, single point] | 17.4% | – |

In the list so far, two contain an aryl methoxy group.

| Compound | AC50 [1] | cell number change | AC50 [2] |
| --- | --- | --- | --- |
| COc1ccc(NC(=O)C(CCS(C)(=O)=O)N2C(=O)c3ccccc3C2=O)cc1 (centres undefined) | – | -80.7% | 16.4 µM [falling, partial curve] |
| COc1ccc(NC(=O)Cn2nnc(C(=O)NCCc3ccccc3)c2N)cc1 | 0.00517 µM [falling, full curve, poor fit] | – | – |

Following part:

| Compound | AC50 [1] | cell number change | AC50 [2] |
| --- | --- | --- | --- |
| CC1CCCN(C(=O)C2CCN(S(=O)(=O)c3cccc4cccnc34)CC2)C1 (centres undefined) | 1.16 µM [falling, single point] | 10.4% | – |
| CCCCOC(=O)/C=C/c1ccc(OC(=O)OC)c(OC(=O)OC)c1 | – | 80.9% | 29.1 µM [rising, single point] |
| Cc1cc(N)nc(C)c1C#N | – | 14.6% | 0.00461 µM [rising, full curve, poor fit] |
| Cc1cccc(C)c1OCC(O)CN1CCN(c2ccccn2)CC1 (centres undefined) | 0.82 µM [rising, single point] | 37.9% | – |
| CCOC(=O)c1c(C)nc2sc3c(=O)n(-c4ccc(C(C)=O)cc4)nnc3c2c1-c1ccc(Cl)cc1 | 0.0058 µM [rising, full curve, poor fit] | – | 0.0517 µM [rising, full curve, poor fit] |
| S=C(Nc1ccc(Cl)cc1)c1nc2ccccc2s1 | 18.4 µM [falling, partial curve] | -62.8% | 18.4 µM [falling, partial curve] |
| COc1cc(/C=C2/NC(=O)N(Cc3ccccc3F)C2=O)cc(OC)c1O | 2.31 µM [falling, partial curve] | -14.4% | – |
| COc1ccc(S(=O)(=O)Nc2ccccc2SC)cc1C | 3.66 µM [rising, single point] | – | – |
| O=C(CSc1nc2ccccc2o1)Nc1nc(-c2ccccc2)cs1 | 6.51 µM [rising, single point] | 4.97% | – |
| COc1ccc(CCC(=O)NCCc2nc3ccccc3[nH]2)cc1 | 29.1 µM [falling, single point] | -35% | 29.1 µM [falling, single point] |
| O=C(N/N=C/c1c(O)ccc2ccccc12)c1[nH]ncc1Br | 5.8 µM [falling, partial curve, poor fit] | -20.1% | 0.00461 µM [falling, full curve, poor fit] |
| CC(=O)Nc1ccc(NC(=O)CNC(=O)COc2ccccc2)cc1 | 0.82 µM [falling, full curve, poor fit] | -27.4% | – |
| CC(NC(=O)c1ccccc1F)c1nnc(SCC(=O)NC2CCCC2)n1C (centres undefined) | – | 33.3% | 4.11 µM [rising, full curve] |
| Cc1ccccc1NC(=O)c1c(C)[nH]c(=S)c(C#N)c1-c1ccc(Cl)cc1 | 20.6 µM [falling, single point] | -24% | – |
| CC1CN(Cc2nnc(-c3ccccc3)o2)CC(C)O1 (centres undefined) | – | 8.17% | – |
| C/C=C(/C)C(=O)OC1c2c(ccc3ccc(=O)oc23)OC(C)(C)C1OC(=O)/C(C)=C\C (centres undefined) | 5.8 µM [falling, partial curve] | -34.1% | 11.6 µM [falling, partial curve] |
| Cn1ccnc1SCCNC(=O)CCc1nnc(CCCCc2ccccc2)o1 | 0.13 µM [falling, full curve, poor fit] | -14.4% | – |
| COc1cc(C(=O)NCc2nnc(SCC(=O)NC3CCCC3)o2)cc(OC)c1OC | – | – | 6.51 µM [falling, single point] |
| O=S(=O)(c1ccc(NC(=S)NCc2ccco2)cc1)N1CCCC1 | 11.6 µM [rising, partial curve, poor fit] | 17.6% | – |

| Compound | AC50 [1] | cell number change | AC50 [2] |
| --- | --- | --- | --- |
| Cc1nc2n(n1)C(O)c1cc([N+](=O)[O-])ccc1S2 (centres undefined) | – | -3.7% | – |
| CCOC(=O)NC(=O)c1cn(N(C)c2ncc(C(F)(F)F)cc2Cl)c(=O)[nH]c1=O | 16.4 µM [falling, single point] | -20.4% | – |
| COc1ccc(N(CC(=O)NCC(C)C)S(=O)(=O)c2ccccc2)cc1 | 0.184 µM [falling, full curve, poor fit] | 1.09% | – |
| COc1cc(/C=C(/C#N)c2nc3ccccc3c(=O)[nH]2)ccc1O | 7.31 µM [rising, partial curve] | 39.6% | 6.51 µM [rising, partial curve] |
| Cc1ccc2nc(NCc3ccccc3)c(C#N)cc2c1 | 0.231 µM [rising, full curve] | -2.17% | 0.058 µM [rising, full curve, poor fit] |
| Cc1ccc(/C=N/NC(=O)COc2ccc(Cl)c(C)c2)o1 | – | 4.17% | – |
| CCn1c(=O)c(C(=O)CN(C)CC(=O)Nc2ccccc2Br)c(N)n(Cc2ccccc2)c1=O | – | 1.2% | – |
| Cc1ccc(C)c(NC(=O)CS(=O)(=O)c2cccc3nsnc23)c1 | 29.1 µM [rising, partial curve, poor fit] | 55.5% | 0.326 µM [rising, full curve, poor fit] |
| Cc1ccc(NCc2ccc(Cl)nc2)c(NCc2ccc(Cl)nc2)c1 | 0.0206 µM [rising, full curve, poor fit] | 10.8% | – |
| O=C(CCc1ccccc1)NNC(=O)c1cccc(F)c1 | 3.66 µM [rising, single point] | 7.06% | 6.51 µM [rising, single point] |
| Cc1cc(NC(=O)CSc2nnc(-c3c[nH]c4ccccc34)n2-c2ccc(Cl)cc2)no1 | – | -56.2% | 29.1 µM [falling, single point] |
| Cn1c(=O)c2c(nc(CN3CCN(C(=O)c4ccco4)CC3)n2Cc2ccccc2F)n(C)c1=O | 1.03 µM [rising, full curve] | 53.3% | 2.91 µM [rising, full curve] |
| COc1ccc(NC2=Nc3cccc4cccc2c34)cc1OC | 13 µM [falling, partial curve, poor fit] | – | – |
| COc1cc(C(=O)NCc2ccncc2)cc(Br)c1OCc1ccccc1 | 13 µM [falling, single point] | -8.47% | – |
| N#CCCN(C(=O)COC(=O)c1ccc(S(=O)(=O)N2CCCCCC2)cc1)c1ccccc1 | 20.6 µM [falling, single point] | 7.48% | – |
| O=C(Cn1cc(C(F)(F)F)ccc1=O)N/N=C/c1cccc(Cl)c1Cl | 8.2 µM [rising, partial curve] | -31.2% | 3.66 µM [falling, full curve, poor fit] |
| CN(Cc1cccnc1)Cc1cn[nH]c1-c1ccc(-c2ccccc2)cc1 | 2.31 µM [rising, partial curve] | 9.84% | – |
| CC(C)=CCN1CCN(Cc2cccnc2)CC1CCO (centres undefined) | 0.206 µM [rising, partial curve, poor fit] | 30.9% | 0.146 µM [rising, full curve, poor fit] |
